Values are the deposited “Percent Effect”, in %.
The record does not define 0% and 100%; most values in the screen are far below 50% and negative numbers occur (in some assays of this library far below -100).
Compounds were drawn at random from those tested, without regard to their results.
Two or more numbers in one place are separate tests of the same structure; such repeats can differ widely.

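Viability assay of Plasmodium falciparum sporozoites; the read-out is not stated. The concentration is filed as 10 mM, unlikely as a test dose, so the dose is not known. Higher reads as lower viability (inferred: compounds with an IC50 in retests scored well above the rest). Strong results were mostly tested again. Of about 34,000 compounds tested this way, about 280 (0.84%) reached 50% or more in at least one test.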

SMILES | effect
COCC1c2c(cnn2CC2CCOCC2)CCN1Cc1ccoc1.O=C(O)C(F)(F)F.O=C(O)C(F)(F)F (centres unmarked) | 5.186
[H][C@@]12CN(S(C)(=O)=O)C[C@]1(C(=O)N(C)C)CCC21CCN(C(C)=O)CC1 | 3.922
O=C(O)C(F)(F)F.O=C(c1ccccc1)N1CCOC2(CCN(Cc3cccs3)CC2)C1 | 8.844
Cc1c(S(=O)(=O)N2CCCC2c2nnc(-c3ccsc3)o2)cnn1C (centres unmarked) | 1.101
[H][C@@]12CCN(C(C)=O)C[C@]1([H])[C@H](C(=O)NCc1ccco1)CCO2 | 1.308
Cc1cnn(CC(C)NCc2ccc(C#N)cc2F)c1 (centres unmarked) | 5.088
COC(=O)c1sccc1NC(=O)C1CCCN1C(=O)c1ccco1 (centres unmarked) | 1.792
O=C(CSCc1ccncc1)N(Cc1ccsc1)C1CC1 | -16.11 and -9.428
O=C(NCc1ccco1)c1nn(C2CCS(=O)(=O)C2)c2c1CCCC2 (centres unmarked) | -29.74 and -20.68 and -9.808
Cc1noc(C)c1CCC(=O)N1CCOCC1CCc1cnccn1 (centres unmarked) | 1.023
COc1ccc(CN(Cc2cncn2C)CC2CCCO2)cc1.O=C(O)CC(O)(CC(=O)O)C(=O)O (centres unmarked) | 4.53
Cn1ccc(CN2CCC(CN3CCOCC3)CC2)cc1=O | -3.038
N#CCCN(Cc1ccccn1)C(=O)c1cccc(CN2CCCC2)c1 | 3.72
O=C(Cc1ccsc1)N1CCCC(c2n[nH]c3nccnc23)C1 (centres unmarked) | -6.043
Cc1n[nH]c(C2CN(C(=O)c3cc4c(s3)CCC4)CCO2)n1 (centres unmarked) | -3.516 and -12.52 and -10.81
COCCNC(=O)c1cc(C)nc(C2CCN(C)CC2)n1 | -3.964
CC(=O)N1CCC2(CC1)c1ncc(-c3ccccc3)n1CCN2C | 4.781
CC(=O)c1cccc(OCCCC(=O)NCC2CCCN2C)c1 (centres unmarked) | -1.154
Cn1cnc2c1CCN(Cc1nc(Cc3ccccc3)no1)C2 | 15.4 and 5.792 and 5.034
O=C(c1cnccn1)N1CCCC(C2=Nc3ccccc3S(=O)(=O)N2)C1 (centres unmarked) | 0.8983
O=C(c1ccccn1)N1CCCC(c2nccn2CC2CCC2)C1 (centres unmarked) | 4.841
[H][C@]12CN(Cc3ccc(OC)cc3)C(=O)[C@@]1([H])CN(S(=O)(=O)CC)C2 | 15.13
CN(Cc1nc(C2CC2)no1)C(=O)C1COc2ccccc2C1 (centres unmarked) | 5.526
Cl.Fc1ccccc1CNc1ccnc(C2CCNCC2)c1 | 4.859
Cc1cc(N)nc(SC2CCN(c3ccccc3F)C2=O)n1 (centres unmarked) | 7.617
Cn1cnc2c1CCN(CCOc1ccc(C#N)cc1)C2 | 2.022
Cc1cnn(CC2CCCN2Cc2noc(C)n2)c1 (centres unmarked) | 0.7402
Cc1ccc(O)c(C(=O)N2CCOCC2c2c(C)n[nH]c2C)c1 (centres unmarked) | 7.131
Cc1cc(S(=O)(=O)N2CCCc3cc(F)c(F)cc32)sc1C(=O)O | -3.922
O=C(NCc1cnc2n1CCN(Cc1ccoc1)C2)c1ccno1.O=C(O)C(F)(F)F | 13.71
Cc1csc(NC(=O)C2(C)CN(C)CCO2)n1 (centres unmarked) | -3.949
O=C(O)C(F)(F)F.[H][C@@]12C[C@@H](C(=O)NC)N(C(C)C)[C@]1([H])CN(C(=O)c1ccco1)C2 | 3.541
Cc1nnc(NCCC(=O)NCc2ccccc2)c(C#N)c1C | -5.346
CCc1nccn1CCCNC(=O)c1cnn(-c2ccccc2OC)c1 | -14.38
Cc1cnn(C2CCCN(C(=O)c3ccc(O)nc3)C2)c1 (centres unmarked) | -1.692
O=C1CN(Cc2nnc(-c3ccc(Br)o3)o2)CCN1 | -4.703
CCc1c(C)nc2cc(C3CCN(Cc4cccnc4)C3)nn2c1O (centres unmarked) | 10.73
COCCN1CCC2(CC1)CN(C(=O)c1ccco1)CCO2.O=C(O)C(F)(F)F | 1.313
O=C(NCCn1ccc(-c2ccccn2)n1)c1ccncc1 | -3.66
Cc1cnc(N2CC3(CCN(S(=O)(=O)C4CC4)C3)C2)nc1.O=C(O)C(F)(F)F | 13.03
O=C(N[C@@H]1CC[C@@H](N2CCCC2)[C@@H]1O)c1cc2ccccc2[nH]1 | 4.476
CC(C)c1ccc(C(O)CN2CCN(Cc3nccn3C)CC2)cc1 (centres unmarked) | 11.05
CS(=O)(=O)NC1CC2(CCN(CCF)CC2)Oc2ccccc21.O=C(O)C(F)(F)F (centres unmarked) | 18.68
CCc1cccc(NS(=O)(=O)c2cc3c(c(C(=O)O)c2)OCCO3)c1 | -11.46
[H][C@@]12CCN(Cc3ccsc3)C[C@]1(C(=O)N1CCCO1)CCO2 | 17.2 and -18.86 and -11.55
O=C1CCNc2cc3c(cc2CN1CC1CC1)OCO3 | 8.134
Cc1nn(C)c2c(N3CCSCC3)nc(C3CC3)nc12 | -10.26 and -9.312
N#Cc1cn(C2CC2)c(=O)n(Cc2noc(-c3ccsc3)n2)c1=O | -0.5549
O=C(O)C(F)(F)F.[H][C@]12CC[C@@]3(N=C(C)N(CC(C)C)C3=O)[C@@]1([H])CN(CC(C)C)C2 | 11.62

Some entries from above, unchanged:

For [H][C@@]12CN(S(C)(=O)=O)C[C@]1(C(=O)N(C)C)CCC21CCN(C(C)=O)CC1 the result was 3.922%.
For Cc1csc(NC(=O)C2(C)CN(C)CCO2)n1 (centres unmarked) the result was -3.949%.
For CN(Cc1nc(C2CC2)no1)C(=O)C1COc2ccccc2C1 (centres unmarked) the result was 5.526%.
For O=C1CCNc2cc3c(cc2CN1CC1CC1)OCO3 the result was 8.134%.
For Cl.Fc1ccccc1CNc1ccnc(C2CCNCC2)c1 the result was 4.859%.
For CCc1nccn1CCCNC(=O)c1cnn(-c2ccccc2OC)c1 the result was -14.38%.

Measurements from “University of Dundee, Small-Polar-MMV Screening Library” (2021), ChEMBL document CHEMBL3988442.